Data set [1] can be described thus: Octanol-water partition coefficient, log D of the compound by HPLC analysis.
The target of data set [2] is Voltage-gated inwardly rectifying potassium channel KCNH2 (Homo sapiens, UniProt Q12809).

Amino acid sequences for entries named in this document (tags omitted). A change or cut given only in a name is not applied to a line headed by its entry.
UniProt Q12809: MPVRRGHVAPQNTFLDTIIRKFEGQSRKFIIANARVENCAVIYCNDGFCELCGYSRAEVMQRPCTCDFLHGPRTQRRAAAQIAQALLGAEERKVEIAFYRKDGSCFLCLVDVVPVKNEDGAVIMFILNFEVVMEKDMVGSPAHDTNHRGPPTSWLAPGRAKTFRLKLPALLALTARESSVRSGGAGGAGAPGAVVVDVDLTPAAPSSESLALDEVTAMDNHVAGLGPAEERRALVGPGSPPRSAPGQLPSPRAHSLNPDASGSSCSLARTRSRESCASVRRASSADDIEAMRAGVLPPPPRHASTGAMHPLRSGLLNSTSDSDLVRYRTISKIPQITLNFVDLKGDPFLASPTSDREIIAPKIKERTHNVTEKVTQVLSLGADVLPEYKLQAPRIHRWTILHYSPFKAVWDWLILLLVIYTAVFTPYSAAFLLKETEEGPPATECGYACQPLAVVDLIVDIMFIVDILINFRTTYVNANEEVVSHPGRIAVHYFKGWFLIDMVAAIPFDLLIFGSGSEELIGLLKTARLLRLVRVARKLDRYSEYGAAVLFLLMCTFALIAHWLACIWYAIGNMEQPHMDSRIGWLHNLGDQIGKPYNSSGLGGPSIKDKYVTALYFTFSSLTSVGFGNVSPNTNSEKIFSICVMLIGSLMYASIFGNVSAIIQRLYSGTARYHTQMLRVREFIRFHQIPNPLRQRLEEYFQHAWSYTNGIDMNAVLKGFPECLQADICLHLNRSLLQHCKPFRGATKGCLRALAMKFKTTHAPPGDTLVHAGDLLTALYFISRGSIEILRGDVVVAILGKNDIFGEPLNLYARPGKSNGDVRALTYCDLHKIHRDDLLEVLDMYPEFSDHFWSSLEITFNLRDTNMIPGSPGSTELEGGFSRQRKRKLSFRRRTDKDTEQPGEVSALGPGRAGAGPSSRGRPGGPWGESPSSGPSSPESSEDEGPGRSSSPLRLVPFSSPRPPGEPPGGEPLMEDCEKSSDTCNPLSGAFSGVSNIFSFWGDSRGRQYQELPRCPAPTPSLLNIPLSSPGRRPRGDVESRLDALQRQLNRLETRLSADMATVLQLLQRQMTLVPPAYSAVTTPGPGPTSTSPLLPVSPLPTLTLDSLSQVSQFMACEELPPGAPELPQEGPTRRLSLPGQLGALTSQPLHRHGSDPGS

The logD is lipophilicity at a set pH, counting ionised and neutral species. A higher logD goes with a more lipophilic compound. For orientation: IC50 means the concentration at which inhibition is half-maximal.

In data set [1], `COCCC(Oc1ncnc2c1cnn2-c1ccccc1C(F)(F)F)C(=O)Nc1ccc(C)cn1` (racemic) yielded a logD of 4.4.

`COCC[C@H](Oc1ncnc2c1cnn2-c1ccccc1C(F)(F)F)C(=O)Nc1ccc(C)cn1` registered an IC50 in data set [2] of 26 µM. In data set [1], the logD was found to be 4.3.

Source of the values: ChEMBL document CHEMBL2202962, “The discovery of a novel series of glucokinase activators based on a pyrazolopyrimidine scaffold” (Bioorg Med Chem Lett, 2012).
